Test results: publication PMC8748630
Results are given in words; binding and its absence hold for the method and conditions named. Sequences can lack the tags named with a protein.

Amino acid sequences for entries named in this document (tags omitted).
UniProt Q96SW2: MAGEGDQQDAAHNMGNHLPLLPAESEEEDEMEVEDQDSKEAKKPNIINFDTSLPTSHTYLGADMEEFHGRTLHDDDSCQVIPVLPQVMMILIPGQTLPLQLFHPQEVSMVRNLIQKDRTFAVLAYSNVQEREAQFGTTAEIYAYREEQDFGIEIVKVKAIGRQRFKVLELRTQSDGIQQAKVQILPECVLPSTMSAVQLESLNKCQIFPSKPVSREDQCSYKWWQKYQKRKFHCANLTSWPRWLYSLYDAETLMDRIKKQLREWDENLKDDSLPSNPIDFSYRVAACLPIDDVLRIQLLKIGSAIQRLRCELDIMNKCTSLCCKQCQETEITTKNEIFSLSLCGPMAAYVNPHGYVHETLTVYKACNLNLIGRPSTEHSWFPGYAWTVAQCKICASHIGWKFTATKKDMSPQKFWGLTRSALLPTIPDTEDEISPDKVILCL

Target: biotin-labelled bls-CRBN (UniProt Q96SW2)
Assay: AlphaScreen or HTRF; AlphaScreen: biotinylated bls-CRBN mixture, FLAG-GST-substrate mixture and DMSO or 20 µM IMiDs; 100 mM Tris pH 8.0, 0.01% Tween20, 100 mM NaCl, 1 mg/mL BSA, 26 °C 1 h; anti-DYKDDDDK mAb, streptavidin donor and Protein A acceptor beads; wheat cell-free proteins

B1: FLAG-GST-ZMYM3 (protein, UniProt Q14202 1-1370)
chain: MDPSDFPSPFDPLTLPEKPLAGDLPVDMEFGEDLLESQTAPTRGWAPPGPSPSSGALDLLDTPAGLEKDPGVLDGATELLGLGGLLYKAPSPPEVDHGPEGTLAWDAGDQTLEPGPGGQTPEVVPPDPGAGANSCSPEGLLEPLAPDSPITLQSPHIEEEETTSIATARRGSPGQEEELPQGQPQSPNAPPSPSVGETLGDGINSSQTKPGGSSPPAHPSLPGDGLTAKASEKPPERKRSERVRRAEPPKPEVVDSTESIPVSDEDSDAMVDDPNDEDFVPFRPRRSPRMSLRSSVSQRAGRSAVGTKMTCAHCRTPLQKGQTAYQRKGLPQLFCSSSCLTTFSKKPSGKKTCTFCKKEIWNTKDSVVAQTGSGGSFHEFCTSVCLSLYEAQQQRPIPQSGDPADATRCSICQKTGEVLHEVSNGSVVHRLCSDSCFSKFRANKGLKTNCCDQCGAYIYTKTGSPGPELLFHEGQQKRFCNTTCLGAYKKKNTRVYPCVWCKTLCKNFEMLSHVDRNGKTSLFCSLCCTTSYKVKQAGLTGPPRPCSFCRRSLSDPCYYNKVDRTVYQFCSPSCWTKFQRTSPEGGIHLSCHYCHSLFSGKPEVLDWQDQVFQFCCRDCCEDFKRLRGVVSQCEHCRQEKLLHEKLRFSGVEKSFCSEGCVLLYKQDFTKKLGLCCITCTYCSQTCQRGVTEQLDGSTWDFCSEDCKSKYLLWYCKAARCHACKRQGKLLETIHWRGQIRHFCNQQCLLRFYSQQNQPNLDTQSGPESLLNSQSPESKPQTPSQTKVENSNTVRTPEENGNLGKIPVKTRSAPTAPTPPPPPPPATPRKNKAAMCKPLMQNRGVSCKVEMKSKGSQTEEWKPQVIVLPIPVPIFVPVPMHLYCQKVPVPFSMPIPVPVPMFLPTTLESTDKIVETIEELKVKIPSNPLEADILAMAEMIAEAEELDKASSDLCDLVSNQSAEGLLEDCDLFGPARDDVLAMAVKMANVLDEPGQDLEADFPKNPLDINPSVDFLFDCGLVGPEDVSTEQDLPRTMRKGQKRLVLSESCSRDSMSSQPSCTGLNYSYGVNAWKCWVQSKYANGETSKGDELRFGPKPMRIKEDILACSAAELNYGLAQFVREITRPNGERYEPDSIYYLCLGIQQYLLENNRMVNIFTDLYYLTFVQELNKSLSTWQPTLLPNNTVFSRVEEEHLWECKQLGVYSPFVLLNTLMFFNTKFFGLQTAEEHMQLSFTNVVRQSRKCTTPRGTTKVVSIRYYAPVRQRKGRDTGPGKRKREDEAPILEQRENRMNPLRCPVKFYEFYLSKCPESLRTRNDVFYLQPERSCIAESPLWYSVIPMDRSMLESMLNRILAVREIYEELGRPGEEDLD
- binding: no binding (tested: tested with DMSO or 20 µM IMiDs)
